This experiment concerns the target UNG2–2HA (uracil DNA glycosylase 2 with two HA epitope tags at the carboxy-terminus) (UniProt P13051). Kind of experiment: co-IP; 293T HEK cells transfected with UNG2–2HA, with empty vector or HIV1 FLAG–Vpr; MG132 for 8 hours before harvest; lysed in ELB buffer; anti-HA agarose beads; eluted with HA peptide; immunoblot for DCAF1, DDB1, HA and FLAG; control: UNG2–myc. Background: In western blotting, separated proteins are transferred to a membrane and probed.

By UniProt entry, the sequences of proteins in these tests, tags left out.
UniProt P13051: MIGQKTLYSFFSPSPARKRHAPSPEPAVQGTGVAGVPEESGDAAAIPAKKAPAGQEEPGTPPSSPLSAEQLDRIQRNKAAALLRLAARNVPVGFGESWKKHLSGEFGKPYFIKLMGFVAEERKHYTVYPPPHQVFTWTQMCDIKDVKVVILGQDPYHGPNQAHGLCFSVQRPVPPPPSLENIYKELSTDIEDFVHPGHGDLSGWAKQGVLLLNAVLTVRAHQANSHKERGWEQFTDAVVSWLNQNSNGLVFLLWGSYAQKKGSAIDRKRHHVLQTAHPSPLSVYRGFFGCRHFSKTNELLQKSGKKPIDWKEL
UniProt Q16531: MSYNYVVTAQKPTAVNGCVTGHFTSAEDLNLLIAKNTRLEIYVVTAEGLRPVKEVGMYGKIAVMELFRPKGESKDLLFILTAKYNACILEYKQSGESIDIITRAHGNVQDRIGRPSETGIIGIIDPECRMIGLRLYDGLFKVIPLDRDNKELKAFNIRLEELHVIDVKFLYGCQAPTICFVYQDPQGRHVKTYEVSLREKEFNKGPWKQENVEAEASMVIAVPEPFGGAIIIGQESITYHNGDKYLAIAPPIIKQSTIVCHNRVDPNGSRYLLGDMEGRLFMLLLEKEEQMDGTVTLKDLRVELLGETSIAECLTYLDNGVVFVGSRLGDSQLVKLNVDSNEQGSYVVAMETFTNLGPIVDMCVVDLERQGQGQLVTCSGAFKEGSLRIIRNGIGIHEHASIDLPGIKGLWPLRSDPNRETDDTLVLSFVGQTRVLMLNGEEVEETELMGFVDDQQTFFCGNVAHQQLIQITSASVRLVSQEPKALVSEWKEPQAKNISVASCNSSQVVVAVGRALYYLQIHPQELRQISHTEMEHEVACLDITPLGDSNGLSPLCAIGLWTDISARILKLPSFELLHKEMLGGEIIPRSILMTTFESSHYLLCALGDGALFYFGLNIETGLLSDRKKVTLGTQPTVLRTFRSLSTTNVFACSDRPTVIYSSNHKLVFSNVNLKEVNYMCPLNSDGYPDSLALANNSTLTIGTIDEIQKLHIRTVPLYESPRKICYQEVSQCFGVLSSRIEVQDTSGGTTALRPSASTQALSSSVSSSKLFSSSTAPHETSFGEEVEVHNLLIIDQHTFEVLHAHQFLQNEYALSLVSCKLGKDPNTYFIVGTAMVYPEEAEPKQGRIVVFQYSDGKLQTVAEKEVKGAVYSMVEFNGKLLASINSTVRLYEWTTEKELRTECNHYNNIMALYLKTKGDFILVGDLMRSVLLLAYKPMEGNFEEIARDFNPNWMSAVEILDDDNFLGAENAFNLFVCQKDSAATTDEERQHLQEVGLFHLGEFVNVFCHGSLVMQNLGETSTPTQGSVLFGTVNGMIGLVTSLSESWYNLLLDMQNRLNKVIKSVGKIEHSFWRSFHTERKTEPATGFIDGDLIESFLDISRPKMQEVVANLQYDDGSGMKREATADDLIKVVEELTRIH

No constants are given. Whether binding was seen depends on the method and setting. In cells and extracts the contact can be indirect. Some entries that bind do so weakly or less than the wild type.

With “DDB1 (endogenous) (from UniProt Q16531 1-1140)”, the binding entry is “binds”.

The values are drawn from publication PMC3265533.
